# Measured values published in PubChem BioAssay AID493014 (National Center for Advancing Translational Sciences (NCATS), 2011).
# The whole screen tested about 340,000 compounds, of which about 170 (0.05%) were called active. Inconclusive results, whose numbers are uncertain, are shown with a selection of clear calls. Calls follow the shape of the dose curve; as a rule, active = well fitted inhibition curve with a large enough effect in the signal ratio, with a control signal flat (not every such curve was filed as active); inconclusive = small, poorly fitted or top-dose-only effect, or effect the other way, or a change in a side signal; inactive = flat fitted curve, though single readings scatter; the % refers to the signal ratio. Where the call is inconclusive, the potency comes from a doubtful curve fit.
# Assay: qHTS Assay to Find Inhibitors of Chronic Active B-Cell Receptor Signaling;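 as to activity change, negative = inhibition: plate controls were basal doxycycline-induced cells for no effect and cells given 10 µM MG132 for full effect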
# Details: ABC-DLBCL IkBa-CBG/CBR reporter, luminescence ratio (green luciferase fused to IkBa over red control in TMD8 lymphoma cells), 4 h; activity change, negative = inhibition: at 46.1 µM (top of the series)
# How it was run: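 Concentration-response series (up to 46 uM) were applied to TMD8 dual-reporter cells for 4 h at 37C with doxycycline. Green/red ratio, after filter-overlap correction, defined %Activity; red signal alone was normalised to basal cells and zero luminescence.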
# Potency is read from the fitted curve at half-maximal effect.
Structure (SMILES),"activity change, negative = inhibition",Potency
COc1ccc(C(NC(=O)c2c(F)c(F)c(F)c(F)c2F)c2ccccc2)cc1 (stereo not drawn),inconclusive: -2.04%,–
COc1ccc(S(=O)(=O)N(CC(=O)NCc2ccco2)c2ccccc2)cc1,inconclusive: 4.19%,–
CCCCNCCOc1ccccc1-c1ccccc1,inconclusive: -7.16%,–
CCOC(=O)Cc1c(C)nc2c(-c3ccccc3)c[nH]n2c1=O,inactive: -0.492%,–
COc1ccc(C)cc1NC(=O)NC1CCN(Cc2ccccc2)CC1,inconclusive: -1.4%,–
CCN(Cc1ccccc1)c1ccc(/C=N/NC(=S)NC(C)C)cc1,–,"inconclusive: 8.2 µM [rising, partial curve, poor fit]"
Cn1cc(Cl)c(/C=C(\C#N)S(=O)(=O)c2ccccc2)n1,inconclusive: -0.523%,–
O=C(Nc1nc2c(s1)CCCC2)c1cccc(S(=O)(=O)N2CCCc3ccccc32)c1,inactive: 5.77%,–
COc1cc2c(cc1NC(=O)c1ccco1)CCCC2,inconclusive: 15.9%,–
Nc1nnc(SCCCOc2ccc(F)cc2)s1,–,"inconclusive: 3.98 µM [falling, full curve]"
CCOc1ccc(CN2C(=O)c3ccccc3C2C(=O)NCc2cccnc2)cc1 (stereo not drawn),inconclusive: -5.61%,–
Cc1nc(SCCOc2ccccc2F)[nH]c(=O)c1Cc1ccccc1,inconclusive: 19.1%,–
CCCc1cc(=O)[nH]c(-n2[nH]c3c(c2=O)CCCC3)n1,–,"inconclusive: 22.4 µM [falling, single point]"
O=C(CSCc1ccccc1)N/N=C/c1cc2c(cc1Br)OCO2,–,"inconclusive: 8.2 µM [falling, partial curve, poor fit]"
O=C(CS(=O)(=O)c1cn(Cc2ccc(F)cc2)c2ccccc12)N1CCCCC1,inconclusive: 9.38%,–
O=C(Nc1ccc(Br)cc1)c1ccc2c(c1)OCO2,inconclusive: -7.93%,–
COC(=O)c1nc(NC(=O)c2ccccc2Cl)n[nH]1,inconclusive: -5.9%,–
COc1cccc(OC)c1OCCCOc1ccc([N+](=O)[O-])cc1Cl,inconclusive: 12.6%,–
O=C(NCCOc1ccccc1)c1n[nH]c(=O)c2ccccc12,inconclusive: 19%,–
COc1cc(/C=N\NC(=O)c2nonc2N)c(OC)cc1Br,inconclusive: -0.533%,–
CCCCC(=O)N/N=C/c1ccc(-c2ccc([N+](=O)[O-])cc2)o1,inconclusive: 0.0709%,–

Structure (SMILES),"activity change, negative = inhibition",Potency
O=C(CCc1ccccc1)NNC(=O)c1ccccc1Cl,inconclusive: -17.9%,–
Cc1ccc(Nc2nc(CSc3nnc(-c4cccnc4)n3-c3ccccc3C)cs2)cc1,inconclusive: 0.122%,–
CCCCN(CC)CCNC(=O)c1cc2c(=O)n(CC)c3ccccc3c2s1,inactive: 7.87%,–
COc1cc(C(=O)NNC(=O)c2nn(C)c(=O)c3ccccc23)cc(OC)c1OC,inconclusive: 0.624%,–
COc1cc(NS(=O)(=O)c2ccc(N/C=C\C(=O)c3ccc(F)cc3)cc2)nc(OC)n1,–,"inconclusive: 20.6 µM [falling, partial curve, poor fit]"
COc1ccc(C(CNC(=O)c2ccc(OC)c(S(=O)(=O)N3CCCC3)c2)N2CCCC2)cc1 (stereo not drawn),inactive: 6.85%,–
COC(=O)C1CCN(C(=O)COC(=O)c2oc3ccc(OC)cc3c2C)CC1,inactive: -1.92%,–
CCc1ccc2[nH]c(=O)c(CN(Cc3ccccc3)C(=O)Nc3ccccc3OC)cc2c1,–,"inconclusive: 1.84 µM [rising, full curve, poor fit]"
O=CNC(n1cnc2c(N3CCOCC3)ncnc21)C(Cl)(Cl)Cl (stereo not drawn),inactive: -13.6%,–
COc1ccc(/C=N/NC(=O)c2cccc(NC(=O)c3ccccc3Cl)c2)cc1,–,"inconclusive: 14.1 µM [cytotoxic, partial curve]"
O=C(C[n+]1ccc(-c2nnc3n2CCC3)cc1)c1ccc(Cl)c(Cl)c1,inactive: -20.7%,–
COc1ccc(C(=O)Cc2ccc3c(c2)OCO3)c(O)c1,inconclusive: 9.7%,–
CCCC/C(=N\NC(=O)c1ccc(Br)o1)c1ccccc1,inconclusive: -17.6%,–
CCc1cc(C(c2ccccc2OC)N2CCOCC2)c(NC(=O)c2ccccc2)s1 (stereo not drawn),inconclusive: -27.2%,–
O=C(O)COc1ccc(-c2nc(-c3ccccc3)c(-c3ccccc3)[nH]2)cc1,inconclusive: 7.36%,–
CC(=O)N1CCN(c2ccccc2NC(=O)c2cc3ccccc3o2)CC1,inconclusive: 17.7%,–
CC1(C)Cc2c(C#N)c(OCC(=O)c3ccc(Cl)cc3)nc(-c3ccco3)c2CO1,inconclusive: 4.64%,–
Cc1cc(Cl)ccc1NC(=O)NC1CCN(S(=O)(=O)c2ccc(F)cc2)CC1,inconclusive: 9.22%,–
CSc1ncc(CN2CCc3c([nH]c4ccccc34)C2c2cccc(C)n2)cn1 (stereo not drawn),inactive: 2.38%,–
CC(=O)C1=C(c2ccccc2)NC(=O)NC1c1ccc(O)c(O)c1 (stereo not drawn),inconclusive: -0.039%,–
CSC1=N/C(=C\c2ccc(Br)o2)C(=O)S1,inconclusive: 20%,–

Structure (SMILES),"activity change, negative = inhibition",Potency
Cc1ccc2c(c1)CCCN2CC(=O)Nc1cccc(S(=O)(=O)N2CCCC2)c1,inconclusive: 0.0601%,–
CC(NC(=O)CCN1C(=O)c2ccccc2C1=O)c1ccc2c(c1)CCCC2 (stereo not drawn),inconclusive: 0.372%,–
O=C(Nc1ccc(NC(=O)c2cccs2)cc1)c1ccccc1,inactive: 13.3%,–
O=C1CC(N2CCN(c3ccccc3O)CC2)C(=O)N1Cc1ccccc1 (stereo not drawn),inconclusive: -3.64%,–
CC(=O)c1cccc(NC(=S)NC(=O)c2ccccc2Cl)c1,–,"inconclusive: 16.4 µM [falling, partial curve]"
CC1CCN(C(=O)COC(=O)c2cc(Cl)c3c(c2)OCO3)CC1,inactive: -0.149%,–
Cn1cc(CNC(=O)C2CCC(=O)N(Cc3cccc(C(F)(F)F)c3)C2)cn1 (stereo not drawn),inconclusive: -6.71%,–
Clc1ccc(OCCCCCN2CCCC2)c(Br)c1,inconclusive: -11.4%,–
c1ccc2sc(N3CCOCC3)nc2c1,inactive: -11%,–
COc1cccc(CC(=O)Nc2cccc3ccccc23)c1,–,"inconclusive: 2.51 µM [falling, partial curve, poor fit]"
Nc1c(C(=O)Nc2ccccc2F)sc2nc(-c3cccnc3)ccc12,inconclusive: 4.57%,–
CCN1CCN(c2ccc(S(=O)(=O)N3CCOCC3)cc2NC(=O)/C=C/c2ccc(C)cc2)CC1,inconclusive: 46.4%,–
Cc1ccc(N(CCC(=O)N2CCOCC2)S(=O)(=O)c2ccccc2)cc1,inactive: -1.03%,–
COc1ccc(NC(=O)/C=C/c2ccc(Br)o2)cn1,inconclusive: 1.8%,–
CCCC(=O)N1CCN(c2ccc(NC(=O)c3cc4ccccc4o3)cc2Cl)CC1,inconclusive: 13.6%,–
CC(=O)Nc1ccc(NC(=O)C(C)OC(=O)c2cc(S(=O)(=O)N3CCOCC3)ccc2Cl)cc1 (stereo not drawn),inconclusive: 0.168%,–
c1ccc2c(c1)CCN(c1nc3cc4c(cc3s1)OCCO4)C2,–,"inconclusive: 35.5 µM [falling, single point]"
COc1ccc(Cn2nnnc2C(c2ccccc2Cl)N2CCC(C(N)=O)CC2)cc1 (stereo not drawn),inconclusive: -10%,–
COc1ccc(Cl)cc1NC(=O)c1c(NCc2cccnc2)sc2c1CCC(C)C2 (stereo not drawn),–,"inconclusive: 8.91 µM [falling, partial curve]"
COc1ccc(-c2[nH]ncc2/C=N/NC(=O)c2ccncc2)c(OC)c1,inactive: -2.08%,–
CC1CCCCN1CCCNC(=O)CN1C(=O)c2cccnc2Oc2ccccc21 (stereo not drawn),inactive: -0.601%,–

Structure (SMILES),"activity change, negative = inhibition",Potency
O=C(NCc1ccc(F)cc1)c1cc2c(s1)CS(=O)(=O)C2,inconclusive: -3.19%,–
CCn1c(=S)sc2c(=O)n(CC(=O)Nc3ccccc3C(F)(F)F)c(C)nc21,inactive: -0.24%,–
O=S(=O)(c1ccc(F)c(F)c1F)N1CCN(C(=S)NCc2ccccc2)CC1,inactive: -1.51%,–
COC(=O)C1=C(C)N(CCc2ccc(OC)c(OC)c2)C(=O)C1,inconclusive: 8.79%,–
CN(C)C(CNC(=O)CCc1nc2cc(Cl)ccc2n(Cc2ccccc2)c1=O)c1ccccc1 (stereo not drawn),–,"inconclusive: 10.3 µM [falling, partial curve, poor fit]"
CC(=O)c1ccc(N2CCN(C(=O)Nc3ccc(F)cc3)CC2)cc1,inactive: 1.9%,–
CN(C)c1ccc(/C=N\NC(=O)CC#N)cc1,–,"inconclusive: 12.6 µM [falling, partial curve]"
Cc1cc(CNC(=O)COc2ccccc2)c2ccccc2n1,inconclusive: -5.76%,–
Nc1c(NCCC2=CCCCC2)c(=O)[nH]c(=O)n1Cc1ccccc1,inconclusive: 8.28%,–
CN(C)S(=O)(=O)c1ccc(C(=O)OCC2CCCO2)cc1 (stereo not drawn),inconclusive: 1.83%,–
CCCOc1ccc(CSc2nc3ccccc3[nH]2)cc1,inactive: 0.707%,–
COC(=O)n1ccc(C(=O)Nc2ccccc2F)n1,inconclusive: -26.9%,–
Cn1nc(C(F)(F)F)c(-c2cccc(C(F)(F)F)c2)c1NC(=O)c1ccco1,inconclusive: 1.12%,–
CC(=O)Nc1nc(-c2ccc([N+](=O)[O-])cc2)cs1,inconclusive: 7.47%,–
COc1ccc(NS(=O)(=O)c2cccc(C(=O)NNC(=O)c3ccc(NC(C)=O)cc3)c2)cc1,inactive: -1.9%,–
O=C(O)CCCCCN1C(=O)C(O)=C(C(=O)/C=C/c2ccccc2)C1c1ccccc1[N+](=O)[O-] (stereo not drawn),–,"inconclusive: 12.6 µM [falling, partial curve]"
CCOc1ccc(Oc2ccc(NS(=O)(=O)c3cc(C(=O)O)ccc3Cl)cc2)cc1,inactive: -0.132%,–
Cc1nc(Nc2ccc(Cl)cc2)c2nnn(Cc3ccccc3)c2n1,inactive: 2.66%,–
COc1cccc(NC(=O)CN(C)CC(=O)Nc2ccc(C)c([N+](=O)[O-])c2)c1,–,"inconclusive: 20 µM [falling, partial curve, poor fit]"
CCCOc1ccc(N2C(=O)CC(N3CCN(c4nc5ccccc5s4)CC3)C2=O)cc1 (stereo not drawn),inactive: 2.67%,–

# Single entries from the entries so far.
# In activity change, negative = inhibition, Cc1nc(Nc2ccc(Cl)cc2)c2nnn(Cc3ccccc3)c2n1 is listed with inactive: 2.66%
# In activity change, negative = inhibition, O=C(NCc1ccc(F)cc1)c1cc2c(s1)CS(=O)(=O)C2 is listed with inconclusive: -3.19%
# In Potency, CN(C)c1ccc(/C=N\NC(=O)CC#N)cc1 is listed with inconclusive: 12.6 µM [falling, partial curve]
# In Potency, O=C(O)CCCCCN1C(=O)C(O)=C(C(=O)/C=C/c2ccccc2)C1c1ccccc1[N+](=O)[O-] (stereo not drawn) is listed with inconclusive: 12.6 µM [falling, partial curve]
